Results from patent US9902725B2, “Heterocyclic derivatives as RORgamma modulators” (GENFIT, priority 2014, dated 2018).
Some results were stated once for a whole list of compounds, not compound by compound.

Target: T1, RORγt ligand-binding domain (RORγt-LBD) (Homo sapiens, UniProt P51449)
T1 construct: 20 nM recombinantly expressed RORγ-LBD fused to GST
T1 sequence (P51449 269-508 limits assumed): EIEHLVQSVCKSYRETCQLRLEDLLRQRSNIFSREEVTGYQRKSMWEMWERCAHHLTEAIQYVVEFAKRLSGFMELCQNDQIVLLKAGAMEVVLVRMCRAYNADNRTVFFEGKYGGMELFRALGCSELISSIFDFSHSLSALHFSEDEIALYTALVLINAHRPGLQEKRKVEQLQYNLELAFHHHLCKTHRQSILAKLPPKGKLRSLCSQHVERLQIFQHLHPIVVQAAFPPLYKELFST
Experiment: Time-resolved FRET (TR-FRET) RORγt coactivator assay
Format: biochemical
Settings: GST-RORγ-LBD, biotinylated RIP140 peptide, coactivator displacement
Description: Time-resolved FRET (TR-FRET) RORγt coactivator assay was used to identify RORγ modulator compounds with ligand-dependent coactivator displacement. The assay uses a d2-labeled anti-GST antibody, synthetic N-terminally biotinylated peptide which is derived from nuclear receptor coactivator protein RIP140, and a RORγt ligand-binding domain (RORγt-LBD) that is tagged with glutathione-S-transferase (GST). The influence of compounds on the RORγ-peptide interaction relies on the binding dependent energy transfer from a donor to an acceptor fluorophore attached to the binding partner of interest. […] For reduction of background from compound fluorescence, TR-FRET method makes use of generic fluorophore labels and time resolved detection.
The assays were done in a final volume of 20 μl in a 384 well plate in a CHAPS buffer (2 mM CHAPS; 1 mM DTT, 2 mM EDTA; 0.1% BSA), containing 20 nM recombinantly expressed RORγ-LBD fused to GST, 30 nM N-terminally biotinylated peptide, 1 nM streptavidin-terbium conjugate and 20 nM d2 labeled-anti-GST. Test compounds were diluted using 10 mM stock solution. The range of the final compound concentrations used in this test was from 0.3 nM to 30 μM (logarithmic scale). […] The signal was detected by an Ultra384 reader (TECAN). […] Data were collected and analyzed using GraphPad Prism software (GraphPad Software V5.02, San Diego Calif. USA). […]

Substance: tert-butyl 3-{5-[({[4-hydroxy-2-(piperidin-1-yl)phenyl](phenyl)methyl}carbamoyl)methyl]-1H-indol-3-yl}propanoate [compound 259]
- IC50: < 1 µM
